From paper PMC5974162, “Characterization of Ferredoxin-Dependent Biliverdin Reductase PCYA1 Reveals the Dual Function in Retrograde Bilin Biosynthesis and Interaction With Light-Dependent Protochlorophyllide Oxidoreductase LPOR in Chlamydomonas reinhardtii” (Frontiers in Plant Science, 2018) come the findings set out here.

No constants are given. Whether binding was seen depends on the method and setting. For part of these data: Binding seen in cells or lysates may run through a third protein. For part of these data: Where a sequence is shown, tags or fusion partners need not be part of it.

For assay [1], the target named is T1, cLUC-AtHY2ΔTP (Arabidopsis thaliana) (UniProt Q9SR43).
T1 sequence: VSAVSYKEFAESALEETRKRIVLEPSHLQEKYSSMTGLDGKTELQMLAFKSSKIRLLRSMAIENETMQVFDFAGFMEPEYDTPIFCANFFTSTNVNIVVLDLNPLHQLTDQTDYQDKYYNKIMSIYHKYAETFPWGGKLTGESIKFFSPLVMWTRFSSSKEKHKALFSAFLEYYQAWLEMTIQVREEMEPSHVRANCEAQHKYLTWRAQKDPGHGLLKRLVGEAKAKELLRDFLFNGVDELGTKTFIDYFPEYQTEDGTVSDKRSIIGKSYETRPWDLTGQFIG
Description: split reporter; split-luciferase complementation; cLUC and nLUC fusions co-expressed in Nicotiana benthamiana leaves by Agrobacterium infiltration; luminescence imaged 48 h after infiltration with 1 mM luciferin.

Assay [2] addresses T2, AtHY2ΔTP (amino acids 46-329) in pGBKT7 (Arabidopsis thaliana) (UniProt Q9SR43).
T2 sequence: T1 sequence
As to the kind of experiment: two-hybrid; Matchmaker Gold system; baits in pGBKT7 (Y2H Gold) mated with preys in pGADT7 (Y187); spotted on SD/-Trp-Leu, SD/-Trp-Leu-Ade-His and SD/-Trp-Leu with 80 μg/ml X-gal, 28°C, 2-3 days.

B1: nLUC-AtPORAΔTP (domain or fragment, UniProt Q42536 54-405)
chain: CKREQSLRNNKAIIRAQAIATSTPSVTKSSLDRKKTLRKGNVVVTGASSGLGLATAKALAETGKWHVIMACRDFLKAERAAQSAGMPKDSYTVMHLDLASLDSVRQFVDNFRRAEMPLDVLVCNAAVYQPTANQPTFTAEGFELSVGINHLGHFLLSRLLIDDLKNSDYPSKRLIIVGSITGNTNTLAGNVPPKANLGDLRGLAGGLNGLNSSAMIDGGDFVGAKAYKDSKVCNMLTMQEFHRRFHEDTGITFASLYPGCIATTGLFREHIPLFRTLFPPFQKYITKGYVSESEAGKRLAQVVADPSLTKSGVYWSWNKTSASFENQLSQEASDVEKARRVWEVSEKLVGLA
For the molecule B1, the binding result in assay [1] is on record as “no binding”.

B2: AtPORAΔTP (amino acids 54-405) in pGADT7 (domain or fragment, UniProt Q42536 54-405)
chain: B1 chain
In the case of B2, the binding entry in assay [2] was “no binding”.

B3: AtPORCΔTP (amino acids 67-401) in pGADT7 (domain or fragment, UniProt O48741 67-401)
chain: AQTVTATPPANEASPEQKKTERKGTAVITGASSGLGLATAKALADTGKWHVIMACRNFLKAEKAARSVGMSKEDYTVMHLDLASLESVKQFVENFRRTEQPLDVLVCNAAVYQPTAKEPSFTAEGFEISVGTNHLGHFLLSRLLLDDLKKSDYPSKRMIIVGSITGNTNTLAGNVPPKANLGDLRGLASGLNGQNSSMIDGGEFDGAKAYKDSKVCNMLTMQELHRRYHEETGVTFASLYPGCIATTGLFREHIPLFRLLFPPFQKYITKGYVSEEEAGKRLAQVVSDPSLGKSGVYWSWNNNSSSFENQLSKEASDAEKAKKLWEVSEKLVGLA
Regarding B3, the binding entry in assay [2] is on record as “no binding”.

B4: nLUC-AtPORCΔTP (domain or fragment, UniProt O48741 67-401)
chain: B3 chain
Turning to B4, in assay [1], the binding entry is given as “no binding”.

B5: nLUC-AtPORBΔTP (domain or fragment, UniProt P21218 44-401)
chain: SEHGSSSLRFKREQSLRNLAIRAQTAATSSPTVTKSVDGKKTLRKGNVVVTGASSGLGLATAKALAETGKWNVIMACRDFLKAERAAKSVGMPKDSYTVMHLDLASLDSVRQFVDNFRRTETPLDVLVCNAAVYFPTAKEPTYSAEGFELSVATNHLGHFLLARLLLDDLKKSDYPSKRLIIVGSITGNTNTLAGNVPPKANLGDLRGLAGGLNGLNSSAMIDGGDFDGAKAYKDSKVCNMLTMQEFHRRFHEETGVTFASLYPGCIASTGLFREHIPLFRALFPPFQKYITKGYVSETESGKRLAQVVSDPSLTKSGVYWSWNNASASFENQLSEEASDVEKARKVWEISEKLVGLA
Consider B5, for which, in assay [1], the binding result was “no binding”.

B6: AtPORBΔTP (amino acids 44-401) in pGADT7 (domain or fragment, UniProt P21218 44-401)
chain: B5 chain
With B6, the binding result in assay [2] is given as “no binding”.
